Results are given in words; binding and its absence hold for the method and conditions named. Binding seen in cells or lysates may run through a third protein. A yes stands for co-enrichment or nearness to the bait. Other partners may have been found. For some assays here: No binding means not detected with the bait.
Columns and labels:
[1] = biological target: GFP–WDR34 p.T354M (human) (UniProt Q96EX3); assay: affinity purification with mass spectrometry; GFP-Trap beads on clarified lysates of RPE1 WDR34 KO cells stably expressing GFP proteins, serum-starved 24 h; cells cross-linked with 1 mM DSP before lysis; 16-plex TMT labelling; abundances normalised to WDR34 (GFP only: to GFP) and compared with GFP–WDR34-WT; three independent experiments (PXD032758)
[2] = biological target: GFP–WDR34 p.S410I (human) (UniProt Q96EX3); assay: as above
[3] = biological target: GFP–WDR34 p.G393S (human) (UniProt Q96EX3); assay: as above
[4] = biological target: GFP–WDR34 p.C148F (human) (UniProt Q96EX3); assay: as above
[5] = biological target: GFP–WDR34 p.A341V (human) (UniProt Q96EX3); assay: as above
GFP–WDR34 p.A22V (human) = GFP–WDR34 p.A22V (human) (UniProt Q96EX3); assay: as above
[6] = biological target: GFP–WDR34-p.Q158* (human) (UniProt Q96EX3); assay: as above
[7] = biological target: GFP–WDR34 p.R182W (human) (UniProt Q96EX3); assay: as above
[8] = biological target: GFP–WDR34 p.R206C (human) (UniProt Q96EX3); assay: as above
[9] = biological target: GFP–WDR34 p.R447Q (human) (UniProt Q96EX3); assay: as above
GFP–WDR34-WT (human) = GFP–WDR34-WT (human) (UniProt Q96EX3); assay: as above
[10] = biological target: GFP–WDR34 p.R447W (human) (UniProt Q96EX3); assay: as above
[11] = biological target: GFP–WDR34 p.K436R (human) (UniProt Q96EX3); assay: as above
[12] = biological target: GFP–WDR34 p.P390L (human) (UniProt Q96EX3); assay: as above
[13] = biological target: GFP–WDR34-p.Q158* (human) (UniProt Q96EX3); assay: affinity purification with mass spectrometry; GFP immunoprecipitates of GFP-WDR34-Gln158* and GFP-WDR34-FL cells; abundance ratios of dynein-2 components in Table S3; two independent experiments (PXD025686)

Sequences of proteins named here, by UniProt entry; tags and fusion partners are left off. A change or cut given only in a name is not applied to a line headed by its entry. Residues count along the entry.
UniProt Q96EX3: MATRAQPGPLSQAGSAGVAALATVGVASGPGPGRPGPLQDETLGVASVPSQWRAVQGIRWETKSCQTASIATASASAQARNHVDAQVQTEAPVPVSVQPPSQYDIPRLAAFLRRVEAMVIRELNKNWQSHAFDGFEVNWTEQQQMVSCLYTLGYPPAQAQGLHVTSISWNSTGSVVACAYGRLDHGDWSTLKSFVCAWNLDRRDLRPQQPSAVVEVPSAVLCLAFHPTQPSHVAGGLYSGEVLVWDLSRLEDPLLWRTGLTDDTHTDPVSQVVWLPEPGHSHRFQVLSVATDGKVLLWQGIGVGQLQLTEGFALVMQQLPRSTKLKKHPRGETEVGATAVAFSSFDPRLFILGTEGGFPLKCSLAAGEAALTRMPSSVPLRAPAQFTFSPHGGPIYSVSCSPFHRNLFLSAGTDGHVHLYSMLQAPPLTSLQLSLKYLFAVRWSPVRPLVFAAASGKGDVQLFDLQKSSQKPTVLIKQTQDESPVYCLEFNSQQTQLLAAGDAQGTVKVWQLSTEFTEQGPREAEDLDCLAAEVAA
GFP–WDR34-p.Q158*: residues 1-157 of Q96EX3
UniProt P63167: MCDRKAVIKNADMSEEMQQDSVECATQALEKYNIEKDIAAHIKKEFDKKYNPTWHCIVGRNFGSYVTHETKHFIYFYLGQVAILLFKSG
UniProt Q9NP97: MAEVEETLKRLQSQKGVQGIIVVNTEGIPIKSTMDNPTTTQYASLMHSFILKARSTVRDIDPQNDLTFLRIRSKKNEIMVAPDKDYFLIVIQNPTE
UniProt Q8TF09: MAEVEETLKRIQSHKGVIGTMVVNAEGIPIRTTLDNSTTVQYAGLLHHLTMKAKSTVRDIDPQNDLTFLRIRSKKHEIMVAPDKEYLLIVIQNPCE
UniProt P63172: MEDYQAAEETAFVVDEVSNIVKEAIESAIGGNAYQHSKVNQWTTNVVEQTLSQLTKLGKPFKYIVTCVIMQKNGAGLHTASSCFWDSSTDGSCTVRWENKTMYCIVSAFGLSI
UniProt Q8WW35: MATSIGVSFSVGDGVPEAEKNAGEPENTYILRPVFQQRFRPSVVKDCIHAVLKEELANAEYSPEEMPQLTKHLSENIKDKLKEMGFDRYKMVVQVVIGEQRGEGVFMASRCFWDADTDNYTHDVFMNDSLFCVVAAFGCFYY
UniProt P51808: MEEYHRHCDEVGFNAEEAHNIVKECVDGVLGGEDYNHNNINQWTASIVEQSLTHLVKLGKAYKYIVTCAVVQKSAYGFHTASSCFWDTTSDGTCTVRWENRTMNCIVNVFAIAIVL
UniProt Q8TCX1: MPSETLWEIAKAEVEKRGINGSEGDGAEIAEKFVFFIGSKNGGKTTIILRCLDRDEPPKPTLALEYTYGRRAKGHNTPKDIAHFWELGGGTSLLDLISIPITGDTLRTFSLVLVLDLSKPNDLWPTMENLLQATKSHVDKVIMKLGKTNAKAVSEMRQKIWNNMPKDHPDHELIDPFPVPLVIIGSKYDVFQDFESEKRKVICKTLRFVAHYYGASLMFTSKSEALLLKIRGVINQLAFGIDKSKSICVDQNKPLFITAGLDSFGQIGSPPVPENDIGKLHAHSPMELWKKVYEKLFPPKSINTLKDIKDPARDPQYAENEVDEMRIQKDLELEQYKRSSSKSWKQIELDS
UniProt Q8WVS4: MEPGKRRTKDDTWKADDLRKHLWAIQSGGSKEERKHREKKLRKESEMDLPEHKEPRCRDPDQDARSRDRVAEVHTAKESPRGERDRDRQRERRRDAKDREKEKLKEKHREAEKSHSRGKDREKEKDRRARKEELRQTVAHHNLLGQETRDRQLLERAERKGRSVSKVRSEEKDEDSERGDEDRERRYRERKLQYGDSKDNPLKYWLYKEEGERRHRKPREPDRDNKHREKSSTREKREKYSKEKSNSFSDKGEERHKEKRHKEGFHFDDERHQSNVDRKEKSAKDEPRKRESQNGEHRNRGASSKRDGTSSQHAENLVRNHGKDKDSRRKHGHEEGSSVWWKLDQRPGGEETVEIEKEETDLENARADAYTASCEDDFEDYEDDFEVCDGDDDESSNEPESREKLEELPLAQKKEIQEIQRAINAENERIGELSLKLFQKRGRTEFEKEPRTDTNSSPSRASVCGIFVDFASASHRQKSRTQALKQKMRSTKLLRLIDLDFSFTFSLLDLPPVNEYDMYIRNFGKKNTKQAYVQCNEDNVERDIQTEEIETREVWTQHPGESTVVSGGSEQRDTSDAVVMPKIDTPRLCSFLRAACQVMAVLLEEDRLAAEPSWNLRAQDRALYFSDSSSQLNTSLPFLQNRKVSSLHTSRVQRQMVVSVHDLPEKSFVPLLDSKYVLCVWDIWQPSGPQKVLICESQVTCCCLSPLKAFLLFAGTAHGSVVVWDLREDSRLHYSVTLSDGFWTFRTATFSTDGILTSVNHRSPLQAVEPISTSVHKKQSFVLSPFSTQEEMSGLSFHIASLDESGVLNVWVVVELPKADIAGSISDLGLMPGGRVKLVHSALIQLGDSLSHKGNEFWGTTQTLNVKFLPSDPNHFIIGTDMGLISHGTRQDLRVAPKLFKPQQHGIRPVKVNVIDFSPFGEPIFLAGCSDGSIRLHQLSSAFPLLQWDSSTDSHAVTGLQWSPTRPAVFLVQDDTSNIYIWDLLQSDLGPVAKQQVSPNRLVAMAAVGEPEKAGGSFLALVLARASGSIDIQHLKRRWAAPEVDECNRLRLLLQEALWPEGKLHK

| Substance | binding [1] | binding [2] | binding [3] | binding [4] | binding [5] | binding (GFP–WDR34 p.A22V (human)) | binding [6] | binding [7] | binding [8] | binding [9] | binding (GFP–WDR34-WT (human)) | binding [10] | binding [11] | binding [12] | binding [13] |
| --- | --- | --- | --- | --- | --- | --- | --- | --- | --- | --- | --- | --- | --- | --- | --- |
| DYNC2H1 (from UniProt Q8NCM8 1-4307) | binds | binds | binds | binds | binds | binds | binds | binds | binds | binds | binds | binds | binds | binds | – |
| DYNLL1 (from UniProt P63167 1-89) | binds | binds | binds | binds | binds | binds | binds | binds | binds | binds | binds | binds | binds | binds | binds |
| DYNLRB1 (from UniProt Q9NP97 1-96) | binds | binds | binds | binds | binds | binds | binds | binds | binds | binds | binds | binds | binds | binds | – |
| DYNLRB2 (from UniProt Q8TF09 1-96) | no binding | no binding | no binding | no binding | no binding | no binding | no binding | no binding | no binding | no binding | – | no binding | no binding | no binding | – |
| DYNLT1 (from UniProt P63172 1-113) | binds | binds | binds | binds | binds | binds | binds | binds | binds | binds | binds | binds | binds | binds | – |
| DYNLT2B (from UniProt Q8WW35 1-142) | binds | binds | binds | binds | binds | binds | binds | binds | binds | binds | binds | binds | binds | binds | – |
| DYNLT3 (from UniProt P51808 1-116) | no binding | no binding | no binding | no binding | no binding | no binding | no binding | no binding | no binding | no binding | – | no binding | no binding | no binding | – |
| LIC3 (from UniProt Q8TCX1 1-351) | binds | binds | binds | binds | binds | binds | binds | binds | binds | binds | binds | binds | binds | binds | – |
| WDR60 (from UniProt Q8WVS4 1-1066) | binds | binds | binds | binds | binds | binds | binds | binds | binds | binds | binds | binds | binds | binds | – |

— paper PMC9687537
